Reference: publication PMC12475018
No constants are given. Whether binding was seen depends on the method and setting. Some results given as binding are weak or reduced against the parent protein; the word gives no strength. Each block holds one binder with its values, some of them ahead of it.

Tests used:
[1] = biological target: T1, Ercc1 (HT-3C-Full length) (mouse) (UniProt P07903); assay: co-purification (affinity, heparin, SEC); proteins co-expressed in co-infected Sf9 cells; MBP affinity chromatography, elution with 20 mM maltose; HiTrap Heparin HP with NaCl gradient; MBP cleaved by TEV and HT by 3C overnight at 4 °C; Superose 6 Increase 10/300 GL; 20 mM Tris pH 8.0, 150 mM-1 M NaCl, 10% glycerol, 3 mM B-ME
T1 sequence: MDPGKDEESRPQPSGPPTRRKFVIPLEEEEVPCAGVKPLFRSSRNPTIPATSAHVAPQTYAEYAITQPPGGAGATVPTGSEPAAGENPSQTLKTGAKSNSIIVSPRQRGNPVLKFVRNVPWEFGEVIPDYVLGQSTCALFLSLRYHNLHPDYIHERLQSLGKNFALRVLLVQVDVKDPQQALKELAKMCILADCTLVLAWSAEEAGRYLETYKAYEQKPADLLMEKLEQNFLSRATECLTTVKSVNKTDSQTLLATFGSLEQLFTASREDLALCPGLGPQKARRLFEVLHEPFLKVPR

Slx4(1-758) (mouse) = biological target: T2, Slx4(1-758) (mouse) (UniProt Q6P1D7); assay: as above
T2 sequence: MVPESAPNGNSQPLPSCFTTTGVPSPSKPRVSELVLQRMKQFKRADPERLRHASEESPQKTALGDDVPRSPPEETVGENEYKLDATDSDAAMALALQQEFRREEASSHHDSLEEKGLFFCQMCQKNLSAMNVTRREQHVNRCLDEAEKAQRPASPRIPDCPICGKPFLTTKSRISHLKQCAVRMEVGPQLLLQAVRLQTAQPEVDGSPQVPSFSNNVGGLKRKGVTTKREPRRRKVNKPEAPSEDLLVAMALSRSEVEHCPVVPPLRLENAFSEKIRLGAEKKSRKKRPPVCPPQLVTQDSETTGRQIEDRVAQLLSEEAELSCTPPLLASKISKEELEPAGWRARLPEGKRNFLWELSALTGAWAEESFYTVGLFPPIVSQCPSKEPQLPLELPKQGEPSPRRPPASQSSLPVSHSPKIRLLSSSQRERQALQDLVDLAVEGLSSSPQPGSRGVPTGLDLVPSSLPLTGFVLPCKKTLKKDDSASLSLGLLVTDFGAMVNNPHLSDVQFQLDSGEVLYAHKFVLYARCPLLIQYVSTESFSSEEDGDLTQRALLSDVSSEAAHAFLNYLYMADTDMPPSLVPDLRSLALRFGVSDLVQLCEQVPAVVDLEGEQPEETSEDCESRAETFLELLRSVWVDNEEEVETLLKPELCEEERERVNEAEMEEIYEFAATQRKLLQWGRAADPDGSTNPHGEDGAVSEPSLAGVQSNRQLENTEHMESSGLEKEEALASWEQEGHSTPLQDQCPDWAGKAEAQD

binding [1]: binds | binding (Slx4(1-758) (mouse)): binds
B1: Xpf (full length) (enzyme, UniProt Q9QZD4 1-917)
chain: MEPGLSGERRSMAPLLEYERQQVLELLDSDGLVVCARGLGTDRLLYHFLRLHCHPACLVLVLNTQPAEEEYFINQLKIEGVEHLPRRVTNEIASNSRYEVYTQGGIIFATSRILVVDFLTGRIPSDLITGILVYRAHRIIESCQEAFILRLFRQKNKRGFIKAFTDNAVAFDTGFCHVERVMRNLFVRKLYLWPRFHVAVNSFLEQHKPEVVEIHVSMTPAMLAIQTAILDILNACLKELKCHNPSLEVEDLSLENALGKPFDKTIRHYLDPLWHQLGAKTKSLVQDLKILRTLLQYLSQYDCVTFLNLLESLRATEKVFGQNSGWLFLDASTSMFVNARARVYRVPDVKLNKKAKTSEKTSSPEVQETKKELVLESNPKWEALTDVLKEIEAENKESEALGGPGRVLICASDDRTCCQLRDYLSAGAETFLLRLYRKTFEKDGKAEEVWVNVRKGDGPKRTTKSDKRPKAAPNKERASAKRGAPLKRKKQELTLTQVLGSAEEPPEDKALEEDLCRQTSSSPEGCGVEIKRESFDLNVSSDAAYGILKEPLTIIHPLLGCSDPYALTRVLHEVEPRYVVLYDAELTFVRQLEIYRASRPGKPLRVYFLIYGGSTEEQRYLTALRKEKEAFEKLIREKASMVVPEEREGRDETNLDLARGSAALDAPTDTRKAGGQEQNGTQSSIVVDMREFRSELPSLIHRRGIDIEPVTLEVGDYILTPELCVERKSVSDLIGSLHSGRLYSQCLAMSRYYRRPVLLIEFDPSKPFSLAPRGAFFQEMSSSDVSSKLTLLTLHFPRLRLLWCPSPHATAELFEELKQNKPQPDAATAMAITADSETLPESDRYNPGPQDFVLKMPGVNAKNCRSLMNQVKNIAELATLSLERLTTILGHSGNAKQLHDFLHTAYADLVSKGRVRK

binding (Slx4(1-758) (mouse)): binds
B2: Ercc1 (HT-3C-Full length) (protein, UniProt P07903 1-298)
chain: T1 sequence
